Source: US20230338397A1, “COMPOSITION COMPRISING CANNABINOIDS, AND/OR TERPENS, AND METHODS OF USING SAME” (priority 2020, published 2023)
At least one structure is not confirmed: it was looked up by name or label, or the drawing left a doubt.

Assays:
[1] = system: dispersed nasal polyp cells; assay: Cell death of dispersed NP cells (PI, flow cytometry), 2 h; assay type: cell-based, human; details: 10 μM, 2 h incubation, FIG. 12
Experimental: DNPCs are prepared from nasal polyps by means of enzymatic digestion. Nasal Polyps are incubated for 2 hours at 37° C. in RPMI 1640 (1 g of tissue per 4 mL) containing 2.0 mg/mL protease, 1.5 mg/mL collagenase, 0.75 mg/mL hyaluronidase, and 0.05 mg/mL DNase. The cell suspension is then filtered through a […] cell strainer to remove any undigested tissue and washed 2 times with washing medium (RPMI 1640 supplemented with 2% FCS, 2 mmol/L glutamine, 100 U/mL penicillin, and […] streptomycin). The cell pellet is resuspended in erythrocyte lysis buffer and washed with washing medium. After washing, DNPCs are suspended in culture medium (RPMI 1640 supplemented with 10% Foetal Calf Serum (FCS), 2 mmol/L glutamine, 100 U/mL penicillin, and […] streptomycin).
The effect of the treatment is evaluated by cell death parameters, using […] (PI) and flow cytometry (FACS) analysis, and enzymatic-linked immunoassay (ELISA).

human NP tissue = assay: NP organ culture: tissue weight reduction ex-vivo; details: DX 150 μM, 24 h incubation, FIG. 5

With `C[C@@H]1C[C@H]2[C@@H]3CCC4=CC(=O)C=C[C@]4(C)[C@@]3(F)[C@@H](O)C[C@]2(C)[C@@]1(O)C(=O)CO` [DX, dexamethasone] the “cell death % of dispersed NP cells” value [1] was “not observed” and the “NP tissue weight reduction” value (human NP tissue) was “comparable to CBD 150 μM”.
